Measurements: US20250042957A1
Results are given in words; binding and its absence hold for the method and conditions named. Some results given as binding are weak or reduced against the parent protein; the word gives no strength.

Amino acid sequences for entries named in this document (tags omitted). A change or cut given only in a name is not applied to a line headed by its entry. Chains listed by the source or under a name are the forms on record and can include a tag or linker.
VEGF165 (P15692, form named): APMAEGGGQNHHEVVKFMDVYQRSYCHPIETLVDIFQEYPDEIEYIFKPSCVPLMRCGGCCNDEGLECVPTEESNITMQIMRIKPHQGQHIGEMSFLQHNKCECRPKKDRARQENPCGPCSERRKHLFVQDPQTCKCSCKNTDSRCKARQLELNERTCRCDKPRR

Tests used:
Switchdrug DARPin 17-1 = experiment: ELISA: 10 nM Switchdrug DARPin 17-1 pre-incubated with titrated soluble VEGF; read-out is the construct bound to plate-bound biotinylated scCD3εγ (release of the α-CD3 binder)
Switchdrug DARPin 18-3 [1] = experiment: ELISA: 100 nM Switchdrug DARPin 18-3 pre-incubated with titrated soluble VEGF; read-out is the construct bound to plate-bound biotinylated scCD3εγ (release of the α-CD3 binder)
Switchdrug DARPin 17-3 [2] = experiment: ELISA: 10 nM Switchdrug DARPin 17-3 pre-incubated with titrated soluble VEGF; read-out is the construct bound to plate-bound biotinylated scCD3εγ (release of the α-CD3 binder)
Switchdrug DARPin 17-3 [3] = experiment: HTRF: 20 nM Switchdrug DARPin with titrated soluble VEGF; read-out is the construct's binding to 1 nM biotinylated scCD3εγ (release of the α-CD3 binder)
Switchdrug DARPin 13-3 = experiment: as above
Switchdrug DARPin 15-3 = experiment: as above
Switchdrug DARPin 18-3 [4] = experiment: as above

Measured: binding

VEGF165 (from UniProt P15692 27-191) (ligand)
binds: Switchdrug DARPin 17-1 | Switchdrug DARPin 18-3 [1] | Switchdrug DARPin 17-3 [2] | Switchdrug DARPin 17-3 [3] | Switchdrug DARPin 13-3 | Switchdrug DARPin 15-3 | Switchdrug DARPin 18-3 [4]
